PubChem BioAssay AID1224827 | NIAID, 2016
Shown is one part, drawn at random, of about 3,800 reagents tested. Of all reagents, about 2,200 (57%) are marked active. 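Active means a strong reporter change in either direction; calls are per siRNA, not per gene; qiagen siRNAs gave weaker effects.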 Reagents against one gene are numbered here. Further read-outs or replicates are left out here. No sequences are given here.

- Assay: 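Identify regulators of the macrophage TNF-alpha response to bacterial LPS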 (follow-up of hits)
- Cell system: RAW264.7 G9 mouse macrophage reporter clone
- Reagents: single siRNA against mouse genes, 100 nM siRNA
- Timing: siRNA for 2 days, then LPS about 16 h
- Conditions: bacterial lipopolysaccharide (LPS), 10 ng/ml, cells fixed after overnight (about 16 h) stimulation
- Measurement: 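Imaged nuclear TNF reporter intensity, background removed, scaled per plate and to non-targeting control wells, as z-scores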
- Reading the numbers: TNF reporter z-score, mean: higher = stronger Tnf promoter reporter signal
- Hit rule: 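An siRNA is called active when its mean z-score over replicates is at least +2 or at most -2; control wells get no call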

With Svil #1, how do the results read?
TNF reporter z-score, mean: -1.2; activity call: inactive

What did the screen give for Svil #2?
TNF reporter z-score, mean: -1.35; activity call: inactive

What did the screen give for Svil #3?
TNF reporter z-score, mean: -1.9; activity call: inactive

With Svil #4, how do the results read?
TNF reporter z-score, mean: 1.84; activity call: inactive

How did the screen score Svil #5?
TNF reporter z-score, mean: -2.22; activity call: active

For Svil #6, what does the deposit list?
TNF reporter z-score, mean: -2.9; activity call: active

What did the screen give for Muc19 #1?
TNF reporter z-score, mean: -0.744; activity call: inactive

What is on record for Muc19 #2?
TNF reporter z-score, mean: -2.71; activity call: active

What is on record for Muc19 #3?
TNF reporter z-score, mean: -5.28; activity call: active

With Muc19 #4, how do the results read?
TNF reporter z-score, mean: -0.0226; activity call: inactive

With Muc19 #5, how do the results read?
TNF reporter z-score, mean: -0.349; activity call: inactive

With Muc19 #6, what does the deposit list?
TNF reporter z-score, mean: -3.03; activity call: active

With Rassf8 #1, what was measured?
TNF reporter z-score, mean: 0.461; activity call: inactive

How did the screen score Rassf8 #2?
TNF reporter z-score, mean: -3.46; activity call: active

What is on record for Rassf8 #3?
TNF reporter z-score, mean: -4.28; activity call: active

With Rassf8 #4, how do the results read?
TNF reporter z-score, mean: 1.13; activity call: inactive

With Rassf8 #5, what does the deposit list?
TNF reporter z-score, mean: -0.507; activity call: inactive

With Rassf8 #6, what was measured?
TNF reporter z-score, mean: -1.08; activity call: inactive

What is on record for Pold3 #1?
TNF reporter z-score, mean: -0.291; activity call: inactive

Which result is listed for Pold3 #2?
TNF reporter z-score, mean: -1.86; activity call: inactive

Which result is listed for Pold3 #3?
TNF reporter z-score, mean: -2.39; activity call: active

How did the screen score Pold3 #4?
TNF reporter z-score, mean: 2.78; activity call: active

What did the screen give for Pold3 #5?
TNF reporter z-score, mean: 1.23; activity call: inactive

With Pold3 #6, what was measured?
TNF reporter z-score, mean: 0.684; activity call: inactive

6 entries from above, set out differently:
| Gene | reagent | TNF reporter z-score, mean | activity call |
| --- | --- | --- | --- |
| Rassf8 | 2 | -3.46 | active |
| Rassf8 | 3 | -4.28 | active |
| Rassf8 | 4 | 1.13 | inactive |
| Rassf8 | 5 | -0.507 | inactive |
| Rassf8 | 6 | -1.08 | inactive |
| Pold3 | 1 | -0.291 | inactive |

The listing continues.
For Cyp2c65 #1, how do the results read?
TNF reporter z-score, mean: -3.5; activity call: active

What did the screen give for Cyp2c65 #2?
TNF reporter z-score, mean: -4.15; activity call: active

With Cyp2c65 #3, what does the deposit list?
TNF reporter z-score, mean: -3.96; activity call: active

For Cyp2c65 #4, how do the results read?
TNF reporter z-score, mean: 2.49; activity call: active

For Cyp2c65 #5, how do the results read?
TNF reporter z-score, mean: 2.5; activity call: active

Which result is listed for Cyp2c65 #6?
TNF reporter z-score, mean: -0.146; activity call: inactive

How did the screen score Zdhhc9 #1?
TNF reporter z-score, mean: -2.21; activity call: active

How did the screen score Zdhhc9 #2?
TNF reporter z-score, mean: -4.38; activity call: active

How did the screen score Zdhhc9 #3?
TNF reporter z-score, mean: -4.67; activity call: active

How did the screen score Zdhhc9 #4?
TNF reporter z-score, mean: 4.03; activity call: active

With Zdhhc9 #5, how do the results read?
TNF reporter z-score, mean: 2.02; activity call: active

Which result is listed for Zdhhc9 #6?
TNF reporter z-score, mean: 1.33; activity call: inactive

With Zfp57 #1, what does the deposit list?
TNF reporter z-score, mean: 1.7; activity call: inactive

What is on record for Zfp57 #2?
TNF reporter z-score, mean: -0.548; activity call: inactive

What is on record for Zfp57 #3?
TNF reporter z-score, mean: -1.58; activity call: inactive

For Zfp57 #4, what was measured?
TNF reporter z-score, mean: 0.555; activity call: inactive

How did the screen score Zfp57 #5?
TNF reporter z-score, mean: -1.66; activity call: inactive

How did the screen score Zfp57 #6?
TNF reporter z-score, mean: -3.39; activity call: active
